Experimental data: PubChem BioAssay AID686938 (Drosophila RNAi Screening Center, 2013)
The deposit covers about 23,000 reagents; below is an unselected part of those with a known target gene and a result. Over the whole deposit, 75 (0.33%) are marked active. 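Raw plate signals without normalisation; calls rest on plate z-scores that were not deposited; ratio present for only 364 wells.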 Names joined by + are all predicted targets of the reagent. Not stated in the record: the dose of the treatment.

Screen: 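Looking for CRAC channel components and the factors controlling them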 (primary screen)
Cell system: Drosophila S2R+ cells
Reagent: long dsRNA against Drosophila genes, about 0.25 µg dsRNA per well, roughly 10,000 cells
Duration: 5 days of knock-down before the calcium assay
Challenge: thapsigargin (SERCA pump blocker) to empty calcium stores; entry signal taken 4 min after adding it
Detection: 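Duplicate raw fluo-4 intensities per well from a plate reader, at rest and four minutes after thapsigargin emptied calcium stores; entry-to-rest ratio filled for only some wells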
Direction: calcium entry signal: higher = stronger calcium signal after store depletion; resting calcium signal: higher = higher resting calcium signal
Call rule: 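Hit if the duplicate-averaged plate z-score for entry over resting signal is under −3; wells with weak total dye signal (Fmax z < −2) or more than 5 off-targets removed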
Meaning of the calls: active = strongly reduced calcium entry; inactive = no strong reduction

gene | dsRNA | calcium entry signal, replicate 1 (fluorescence units) | calcium entry signal, replicate 2 (fluorescence units) | resting calcium signal, replicate 1 (fluorescence units) | resting calcium signal, replicate 2 (fluorescence units) | outcome
CG7102 | DRSC02647 | 4.25e7 | – | 2.22e7 | – | inactive
CG7102 | DRSC03007 | 6.01e7 | 5.96e7 | 2.01e7 | 2.41e7 | inactive
S6k | DRSC11276 | 2.87e7 | 3.67e7 | 1.31e7 | 1.49e7 | inactive
Ir56d | DRSC06590 | 5.47e7 | 5.65e7 | 2.02e7 | 2.58e7 | inactive
pim | DRSC03591 | 3.04e7 | – | 2.17e7 | – | inactive
CG1368 | DRSC19537 | 2.39e7 | 2.91e7 | 1.04e7 | 1.32e7 | inactive
RagC-D | DRSC07239 | 5.54e7 | 3.36e7 | 2.16e7 | 1.65e7 | inactive
CG17202 | DRSC15194 | 4.77e7 | 4.85e7 | 2.44e7 | 2.52e7 | inactive
CG17202 | DRSC23073 | 3.38e7 | 2.95e7 | 1.63e7 | 1.28e7 | inactive
CG5556 | DRSC00687 | 4.14e7 | 5.59e7 | 1.92e7 | 2.25e7 | inactive
Dhc1 | DRSC12748 | 1.50e7 | 2.46e7 | 8.08e6 | 1.15e7 | inactive
Dhc1 | DRSC16503 | 4.15e7 | 3.30e7 | 2.07e7 | 1.58e7 | inactive
CG8206 | DRSC20093 | 4.17e7 | 4.23e7 | 1.86e7 | 1.92e7 | inactive
Lim3 | DRSC02475 | 4.96e7 | 5.80e7 | 2.56e7 | 2.46e7 | inactive
Lim3 | DRSC03363 | 3.57e7 | 3.43e7 | 2.18e7 | 2.04e7 | inactive
Lim3 | DRSC22183 | 3.85e7 | 7.64e7 | 1.82e7 | 3.75e7 | inactive
Lim3 | DRSC22650 | 4.27e7 | 3.80e7 | 2.44e7 | 1.71e7 | inactive
Lim3 | DRSC23034 | 3.07e7 | 4.00e7 | 1.68e7 | 1.81e7 | inactive
CG7156 | DRSC16207 | 4.36e7 | 4.03e7 | 2.12e7 | 1.82e7 | inactive
Gad1 | DRSC08661 | 3.95e7 | 3.06e7 | 2.71e7 | 1.36e7 | inactive
Baldspot | DRSC09671 | 4.70e7 | 7.67e7 | 2.25e7 | 3.03e7 | inactive
BBS1 | DRSC10196 | 6.39e7 | 3.52e7 | 3.15e7 | 1.76e7 | inactive
bnb | DRSC20314 | 4.95e7 | 5.09e7 | 2.22e7 | 2.20e7 | inactive
E(spl)mgamma-HLH | DRSC16699 | 5.43e7 | 4.50e7 | 2.61e7 | 1.68e7 | inactive
CG42869 + Sfp93F | DRSC13505 | 3.79e7 | 1.88e7 | 1.61e7 | 9.73e6 | inactive
CG18545 | DRSC15343 | 3.11e7 | 3.53e7 | 1.52e7 | 1.82e7 | inactive

In a second layout: 3 of the entries above.
{"gene": "Lim3", "dsRNA": "DRSC23034", "calcium entry signal, replicate 1 (fluorescence units)": 3.07e7, "calcium entry signal, replicate 2 (fluorescence units)": 4.00e7, "resting calcium signal, replicate 1 (fluorescence units)": 1.68e7, "resting calcium signal, replicate 2 (fluorescence units)": 1.81e7, "outcome": "inactive"}
{"gene": "CG7156", "dsRNA": "DRSC16207", "calcium entry signal, replicate 1 (fluorescence units)": 4.36e7, "calcium entry signal, replicate 2 (fluorescence units)": 4.03e7, "resting calcium signal, replicate 1 (fluorescence units)": 2.12e7, "resting calcium signal, replicate 2 (fluorescence units)": 1.82e7, "outcome": "inactive"}
{"gene": "Gad1", "dsRNA": "DRSC08661", "calcium entry signal, replicate 1 (fluorescence units)": 3.95e7, "calcium entry signal, replicate 2 (fluorescence units)": 3.06e7, "resting calcium signal, replicate 1 (fluorescence units)": 2.71e7, "resting calcium signal, replicate 2 (fluorescence units)": 1.36e7, "outcome": "inactive"}

The listing continues.
gene | dsRNA | calcium entry signal, replicate 1 (fluorescence units) | calcium entry signal, replicate 2 (fluorescence units) | resting calcium signal, replicate 1 (fluorescence units) | resting calcium signal, replicate 2 (fluorescence units) | outcome
Idh3a | DRSC19446 | 3.32e7 | 4.56e7 | 1.83e7 | 2.01e7 | inactive
pio | DRSC04386 | 4.54e7 | – | 2.17e7 | – | inactive
BNIP3 | DRSC11761 | 2.72e7 | 2.32e7 | 1.40e7 | 2.47e7 | inactive
axo | DRSC08116 | 3.89e7 | 3.33e7 | 2.01e7 | 1.64e7 | inactive
axo | DRSC08324 | 2.56e7 | 3.90e7 | 1.31e7 | 1.90e7 | inactive
axo | DRSC08326 | 2.84e7 | 4.41e7 | 1.45e7 | 2.01e7 | inactive
axo | DRSC21337 | 3.01e7 | 3.38e7 | 1.48e7 | 1.48e7 | inactive
axo | DRSC23087 | 3.38e7 | 3.12e7 | 1.37e7 | 1.36e7 | inactive
CG7884 | DRSC20065 | 5.14e7 | 4.97e7 | 2.57e7 | 2.17e7 | inactive
RpS15Ab + RpS15Aa | DRSC06129 | 1.23e7 | 4.39e7 | 9.00e6 | 1.88e7 | inactive
RpS15Ab + RpS15Aa | DRSC19831 | 1.37e7 | 1.52e7 | 1.03e7 | 1.11e7 | inactive
Gdap1 | DRSC10437 | 2.94e7 | 4.37e7 | 1.50e7 | 1.82e7 | inactive
Ube3a | DRSC10600 | 4.62e7 | 2.72e7 | 2.86e7 | 1.29e7 | inactive
XRCC1 | DRSC18729 | 3.02e7 | 2.89e7 | 1.38e7 | 1.40e7 | inactive
CG13051 | DRSC09932 | 3.29e7 | 4.48e7 | 1.68e7 | 1.77e7 | inactive
SCOT | DRSC08186 | 3.69e7 | 3.32e7 | 1.73e7 | 1.80e7 | inactive
GATAe | DRSC14223 | 3.43e7 | 3.52e7 | 1.64e7 | 1.73e7 | inactive
GATAe | DRSC23209 | 4.77e7 | 3.69e7 | 2.45e7 | 1.70e7 | inactive
GEFmeso | DRSC06748 | 4.17e7 | 3.31e7 | 1.74e7 | 1.63e7 | inactive
GEFmeso | DRSC06940 | 5.56e7 | 6.50e7 | 2.32e7 | 2.99e7 | inactive
GEFmeso | DRSC21475 | 2.17e7 | 2.34e7 | 1.14e7 | 1.15e7 | inactive
CG15172 | DRSC02473 | 5.52e7 | 5.03e7 | 2.80e7 | 2.11e7 | inactive
CG6428 | DRSC18402 | 2.37e7 | 4.41e7 | 1.27e7 | 2.03e7 | inactive
pdm3 | DRSC06076 | 3.56e7 | 3.57e7 | 1.60e7 | 1.48e7 | inactive
pdm3 | DRSC06490 | 4.43e7 | 4.23e7 | 2.08e7 | 1.80e7 | inactive
pdm3 | DRSC22326 | 3.57e7 | 5.38e7 | 1.73e7 | 3.01e7 | inactive
pdm3 | DRSC23181 | 4.26e7 | 4.22e7 | 1.82e7 | 1.58e7 | inactive
CG18473 | DRSC16381 | 2.19e7 | 1.55e7 | 1.12e7 | 8.43e6 | inactive
Unc50 | DRSC16561 | 4.21e7 | 3.66e7 | 2.13e7 | 1.80e7 | inactive
SLIRP2 | DRSC16363 | 4.00e7 | 3.71e7 | 2.02e7 | 1.79e7 | inactive
CG11710 | DRSC20485 | 5.53e7 | 4.82e7 | 2.62e7 | 1.99e7 | inactive
CG11626 | DRSC14336 | 3.98e7 | 4.69e7 | 4.99e7 | 2.06e7 | inactive
Cdk12 | DRSC11836 | 3.41e7 | 2.32e7 | 2.78e7 | 1.32e7 | inactive
Cdk12 | DRSC23323 | 3.04e7 | 4.00e7 | 1.68e7 | 2.11e7 | inactive
Imp | DRSC18857 | 3.73e7 | 3.50e7 | 1.71e7 | 1.83e7 | inactive
Imp | DRSC18861 | 3.45e7 | 3.45e7 | 1.61e7 | 1.70e7 | inactive
Imp | DRSC20255 | 4.35e7 | 3.94e7 | 2.06e7 | 1.82e7 | inactive
Imp | DRSC21907 | 3.38e7 | 6.40e7 | 1.60e7 | 3.23e7 | inactive
ND-24L | DRSC10650 | 2.65e7 | 4.92e7 | 1.39e7 | 1.88e7 | inactive
CR42785 | DRSC04962 | 1.90e7 | 3.30e7 | 1.07e7 | 1.50e7 | inactive
LpR1 | DRSC15665 | 2.76e7 | 3.28e7 | 1.24e7 | 1.58e7 | inactive
LpR1 | DRSC15669 | 3.92e7 | 4.29e7 | 1.82e7 | 1.87e7 | inactive
LpR1 | DRSC15670 | 4.36e7 | 3.83e7 | 2.03e7 | 1.64e7 | inactive
CG5849 | DRSC15893 | 4.01e7 | 4.38e7 | 5.24e7 | 1.93e7 | inactive
boss | DRSC16916 | 3.91e7 | 6.79e7 | 2.08e7 | 2.53e7 | inactive
Rlip | DRSC16828 | 4.75e7 | 4.53e7 | 5.05e7 | 2.04e7 | inactive
CHKov2 | DRSC14262 | 2.94e7 | 3.10e7 | 1.35e7 | 1.46e7 | inactive
RpS26 | DRSC03420 | 1.45e7 | 1.30e7 | 1.20e7 | 9.24e6 | inactive
loopin-1 | DRSC06888 | 3.53e7 | 3.12e7 | 1.62e7 | 1.50e7 | inactive
